Data as given in PubChem BioAssay AID1259276 (Sanger Institute, 2017).
Aim: 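Find kinases whose silencing cuts viability alone or combined with BYL719, cetuximab or trametinib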 (primary screen). System: human C2BBe1 colorectal cancer cells. Reagents: siRNA pool against human genes. Treatment: DMSO vehicle, or one anchor drug: BYL719 at 1 µM, cetuximab at 5 µg/ml, or trametinib at 10 nM; exposure length not stated. Measured: 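Viability after knock-down relative to non-targeting siRNA controls, averaged across replicates, given as ratio and control-derived robust z-score, with per-drug synergy scores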. Reading the numbers: viability robust z-score, siRNA alone: higher = more viable cells after knock-down. Hit rule: 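Called essential when knock-down alone gives a viability robust z-score below -3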. Calls: active = essential (siRNA alone); inactive = no change (siRNA alone).
Here is a random part of 794 reagents tested. Of all reagents, 24 (3%) are marked active. 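Calls come only from the siRNA-alone arm; drug synergy scores do not affect them.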 Entries without a mark were called inactive. Not all columns of the deposit are shown. Not given: the amount of reagent, the time to read-out.

Against ACSL6, the values are viability robust z-score, siRNA alone 0.472.
For FN1 the deposit lists viability robust z-score, siRNA alone 0.472.
For ARAF, the values are viability robust z-score, siRNA alone 0.472.
Depletion of KRAS gave: viability robust z-score, siRNA alone -2.51.
For RBKS, the values are viability robust z-score, siRNA alone 0.472.
Depletion of STK3 resulted in: viability robust z-score, siRNA alone 0.472.
Silencing of CKMT1B came out at: viability robust z-score, siRNA alone 0.472.
After knock-down of MAST4 the results were viability robust z-score, siRNA alone 0.472.
After knock-down of ELP1, the record shows viability robust z-score, siRNA alone 0.472.
Silencing of PANK1 resulted in: viability robust z-score, siRNA alone 0.472.
After knock-down of FN3K, the record shows viability robust z-score, siRNA alone -2.15.
Silencing of SRGAP3 resulted in: viability robust z-score, siRNA alone 0.472.
With knock-down of PIK3C2B the results were viability robust z-score, siRNA alone 0.472.
Depletion of EFNA3 resulted in: viability robust z-score, siRNA alone 0.346.
For AKT2, the values are viability robust z-score, siRNA alone 0.472.
PIK3C2G showed viability robust z-score, siRNA alone 0.472.
Against MATK, the entry reads viability robust z-score, siRNA alone 0.472.
Against MAPK10, the entry reads viability robust z-score, siRNA alone 0.472.
Knock-down of DGKA gave: viability robust z-score, siRNA alone 0.472.
NEK9 showed viability robust z-score, siRNA alone 0.472.
After knock-down of TP53RK, the screen gave viability robust z-score, siRNA alone 0.472.
Knock-down of TAOK2 gave: viability robust z-score, siRNA alone 0.472.
Knock-down of FGFR3 came out at: viability robust z-score, siRNA alone 0.472.
For CKM the deposit lists viability robust z-score, siRNA alone 0.472.
Knock-down of PDGFRB came out at: viability robust z-score, siRNA alone 0.0759.
With knock-down of ALDH18A1 the results were viability robust z-score, siRNA alone 0.472.
With knock-down of BCOR, the record shows viability robust z-score, siRNA alone 0.472.
DGKB gave viability robust z-score, siRNA alone -0.88.
CSNK1G3 scored viability robust z-score, siRNA alone 0.472.
Against TSSK2 the deposit lists viability robust z-score, siRNA alone 0.472.
After knock-down of GUCY2C, the record shows viability robust z-score, siRNA alone 0.472.
For DUSP21, the values are viability robust z-score, siRNA alone 0.472.
PSKH1 scored viability robust z-score, siRNA alone 0.472.
After knock-down of ERBB2, the screen gave viability robust z-score, siRNA alone 0.472.
Against ROS1 the deposit lists viability robust z-score, siRNA alone 0.472.
For GRK4, the values are viability robust z-score, siRNA alone 0.472.

Laid out differently: entries from further up
{"gene": "PIK3C2B", "viability robust z-score, siRNA alone": 0.472}
{"gene": "EFNA3", "viability robust z-score, siRNA alone": 0.346}
{"gene": "AKT2", "viability robust z-score, siRNA alone": 0.472}
{"gene": "PIK3C2G", "viability robust z-score, siRNA alone": 0.472}
